Sequences of proteins named here, by UniProt entry; tags and fusion partners are left off.
UniProt Q0JBA9, entry or part of it: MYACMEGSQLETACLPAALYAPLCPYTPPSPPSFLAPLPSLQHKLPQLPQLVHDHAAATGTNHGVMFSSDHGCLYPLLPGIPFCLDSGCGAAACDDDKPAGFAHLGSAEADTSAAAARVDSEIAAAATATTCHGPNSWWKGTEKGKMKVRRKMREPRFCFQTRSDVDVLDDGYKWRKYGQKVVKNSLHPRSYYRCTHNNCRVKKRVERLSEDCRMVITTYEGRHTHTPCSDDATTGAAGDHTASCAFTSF

This is one part of the list.
Each sequence was assayed against OsWRKY34 (Oryza sativa, UniProt Q0JBA9 1-250) (assay: protein-binding microarray (RPBM); PBS, 2% BSA, 51.3 ng/ul salmon testes DNA, 50 uM zinc acetate, 200 nM TF, 25 C, 1 h; high values mean tight binding). Conditions: protein: recombinant; tags: N-terminal polyhistidine and DsRed monomer fusion (pET32a); label: CyDye5-dUTP incorporated in the synthesized complementary strand; 3' TTTTT single-stranded linker to array surface; dsDNA, one strand shown.
How it was run: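 An Axon 4000B scanner gave the binding signal as per-feature fluorescence intensity in arbitrary units. This followed washing of a custom Agilent array that had been incubated for 1 h at 25 °C with 200 nM protein in PBS, 2% BSA, salmon testes DNA and 50 µM zinc acetate. The proteins were transcription factors fused at the N-terminus to polyhistidine and DsRed, expressed in E. coli BL21-CodonPlus and purified on Ni–NTA.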
For “CATTTCTTATTTTGTTTTTGGGCTTTGATGTTTGGTTTCTCGGAGTCACCTAGTGCAG”, the binding signal was 8740 fluorescence intensity (a.u.).
For “GACGCACCCAATACACTCCAATATGTCCAAAAAATGTTTCCGGAGTCACCTAGTGCAG”, the binding signal was 8700 fluorescence intensity (a.u.).
In the case of “CGTTAGGGTTTGAGATTGAGAGGGGCGGCGCTGGCGATCGCGGAGTCACCTAGTGCAG”, the binding signal is reported as 11000 fluorescence intensity (a.u.).
In the case of “TCCACTTCCGCTCGTGCGCCGCGTCGCCTCGTGACCTCCGCGGAGTCACCTAGTGCAG”, the binding signal is reported as 10700 fluorescence intensity (a.u.).
“GTGTATCTACCTGCATGCTCTGCAACTTAACATCATGTTCCGGAGTCACCTAGTGCAG” was tested, and the binding signal was 10700 fluorescence intensity (a.u.).
In the case of “GTGGTTTCGCAGGTAGATGGTCTTCTTCCTGTCTGGTAGACGGAGTCACCTAGTGCAG”, the binding signal is reported as 8210 fluorescence intensity (a.u.).
In the case of “CTCTCTCTCACTCACTCACTCTCCTCTACTAGCTCGTCTCCGGAGTCACCTAGTGCAG”, the binding signal is reported as 8940 fluorescence intensity (a.u.).
“ACCGTTCACCATCCATGTCTCCGCGCCCGTGATCGAGCATCGGAGTCACCTAGTGCAG” was tested, and the binding signal was 9640 fluorescence intensity (a.u.).
“CAAGGACTTGGATATGGTTAGTAAGGGAGAGGGAGGGGTCCGGAGTCACCTAGTGCAG” was tested, and the binding signal was 9010 fluorescence intensity (a.u.).
With “ATACACTAAGTTTTACATAATTTTCCTTTGTTGTTGTTAACGGAGTCACCTAGTGCAG” the binding signal was 8310 fluorescence intensity (a.u.).
For “CGTTCTTGTTCTTGTTCTTGTCCTCCTCTGCTTTAATTTTCGGAGTCACCTAGTGCAG”, the binding signal was 9410 fluorescence intensity (a.u.).
In the case of “CCATTGGTCTCTTCTTCGATCTACATATGTTTCTTCTGCTCGGAGTCACCTAGTGCAG”, the binding signal is reported as 10600 fluorescence intensity (a.u.).
For “CCGTGCTTGCCATTTCCACCAACACTTGGACTAGTTACTCCGGAGTCACCTAGTGCAG”, the binding signal was 10500 fluorescence intensity (a.u.).
With “CTCCTCTCCATCTCCGTCTCCGTCTCGTGTCTTCTCGTCTCGGAGTCACCTAGTGCAG” the binding signal was 10300 fluorescence intensity (a.u.).
For “GCTCTCTCTATTCTGTTTGCAATCCTCTTCACCCTAATTTCGGAGTCACCTAGTGCAG”, the binding signal was 14300 fluorescence intensity (a.u.).
With “TTTCGTTTGTGGATTTGCATCGGAGTTGCCCCATGTTCGTCGGAGTCACCTAGTGCAG” the binding signal was 8380 fluorescence intensity (a.u.).
With “TCTTGCTGCTCCCTCCACTGCTCGCCTCGCCTCCGCCACCCGGAGTCACCTAGTGCAG” the binding signal was 9580 fluorescence intensity (a.u.).
In the case of “TCATACTCTTCCTCTCTCTCACTCTGTCTCACTCTTCTTCCGGAGTCACCTAGTGCAG”, the binding signal is reported as 9330 fluorescence intensity (a.u.).
In the case of “CTCCGCCGCCGTCGCCGCCGCCTCCACCTCCCGTACCCTCCGGAGTCACCTAGTGCAG”, the binding signal is reported as 8460 fluorescence intensity (a.u.).
“CTATTTTCCGGCCATTTTACCCTTTTACTATCATCCAACGCGGAGTCACCTAGTGCAG” was tested, and the binding signal was 10100 fluorescence intensity (a.u.).
In the case of “TAATTTTAAGGCTTTTATCGATATTTATTTTTTCGCCAATCGGAGTCACCTAGTGCAG”, the binding signal is reported as 10600 fluorescence intensity (a.u.).
In the case of “CCTCACTCCACAGTCCACACCACTGCACCGCACTCTCTCTCGGAGTCACCTAGTGCAG”, the binding signal is reported as 10600 fluorescence intensity (a.u.).
In the case of “TGCCCACACAATCCACTCATGACTATATCTATCTATCTATCGGAGTCACCTAGTGCAG”, the binding signal is reported as 10600 fluorescence intensity (a.u.).
For “TTTTGCTATATATATTTTTGTCGATATTTTTTTCTAATATCGGAGTCACCTAGTGCAG”, the binding signal was 10400 fluorescence intensity (a.u.).
For “AAAGCCAGCTTGTCACTGCGCTTCTTTCCTAGTTTCCTTCCGGAGTCACCTAGTGCAG”, the binding signal was 9130 fluorescence intensity (a.u.).
“ATCTGGTCTGCAGGTATTTTCTTTGTATTGTATATTTCTACGGAGTCACCTAGTGCAG” was tested, and the binding signal was 10000 fluorescence intensity (a.u.).
With “CAGTCTGTCTTGGTCTCTTTGTTCAGTCATGGTCTCTCTTCGGAGTCACCTAGTGCAG” the binding signal was 19000 fluorescence intensity (a.u.).
“GCGATCGAGCAGGGTCGCCGTCGTTCGTCCTGCTGCTGCTCGGAGTCACCTAGTGCAG” was tested, and the binding signal was 8520 fluorescence intensity (a.u.).
For “CCATTATAGCTTTGGATCGAATGCTTTTGTTTATTTTGACCGGAGTCACCTAGTGCAG”, the binding signal was 9150 fluorescence intensity (a.u.).
For “AGTATTATTCCGTTTGTGAACCTCGTCGACGACGACGACGCGGAGTCACCTAGTGCAG”, the binding signal was 10400 fluorescence intensity (a.u.).
In the case of “GACCCTGAGCGGCCGCGCCATCGCCTCCGCCTCCGCCGACCGGAGTCACCTAGTGCAG”, the binding signal is reported as 9030 fluorescence intensity (a.u.).
For “TTTTCAAGCGTTACCGCGATTGCTTACTCTTTGGTTTGAACGGAGTCACCTAGTGCAG”, the binding signal was 8530 fluorescence intensity (a.u.).
With “GAGTGGCATATTGTTCTTTTTCTCTTATATTGTAATTTTTCGGAGTCACCTAGTGCAG” the binding signal was 10600 fluorescence intensity (a.u.).
“AAATCTACCCGTGTTTTGTATGCATGCGGCCGATCCTTATCGGAGTCACCTAGTGCAG” was tested, and the binding signal was 8140 fluorescence intensity (a.u.).
For “AGAGAGAGCGCTCTGGTACCCGTTCCCTCCGCCGCTCTCGCGGAGTCACCTAGTGCAG”, the binding signal was 8460 fluorescence intensity (a.u.).
“AGCGTAGGTTGCAGTCTTGCAGAGATCTCAGTGTAAATTTCGGAGTCACCTAGTGCAG” was tested, and the binding signal was 8690 fluorescence intensity (a.u.).
With “CCACCGACCACCCAATCCGTGTCATCCCCATCCGCACCATCGGAGTCACCTAGTGCAG” the binding signal was 8720 fluorescence intensity (a.u.).
“ACATGTTGGATTTTTATACCCGTCACTGGTGACCTTAAAACGGAGTCACCTAGTGCAG” was tested, and the binding signal was 8120 fluorescence intensity (a.u.).
In the case of “ATCGCGGAAGGTGGTGGACTGGTGGTGGGCGCGCGCGCGCCGGAGTCACCTAGTGCAG”, the binding signal is reported as 8570 fluorescence intensity (a.u.).
In the case of “GTTGCGGGGTGGGTGGTGGCGTTGCGGGAGGAGGAGGGAGCGGAGTCACCTAGTGCAG”, the binding signal is reported as 23100 fluorescence intensity (a.u.).
In the case of “AAATGTAGCGTCAAGTAACACGTGTATTCACATTTACGATCGGAGTCACCTAGTGCAG”, the binding signal is reported as 8240 fluorescence intensity (a.u.).
For “GGGTAACCAACAAAACCATACTGCGACACTCCACACCGTTCGGAGTCACCTAGTGCAG”, the binding signal was 8090 fluorescence intensity (a.u.).

— publication PMC7819943, “Rice protein-binding microarrays: a tool to detect cis-acting elements near promoter regions in rice”
